{"source": "patent US20070065366A1", "about": "“Pharmaceutical formulations comprising a long-acting beta2-agonist for administration by nebulisation” (Chiesi Farmaceutici S.p.A., priority 2005, published 2007)", "origin": "cited, not measured here", "conditions": "buffer concentration increased from 5 mM to 20 mM, cited from earlier work", "note": "Where two headings read alike, the source gives them in different places.", "data": [{"smiles": "COc1ccc(CC(C)NCC(O)c2ccc(O)c(NC=O)c2)cc1", "note": "(centres unmarked) [formoterol]", "values": [{"measurement": "effect of buffer concentration on the rate constant of decomposition", "setting": "low and approximately neutral conditions", "value": "increased its rate constant of decomposition significantly"}, {"measurement": "effect of buffer concentration on the rate constant of decomposition", "setting": "pH region of about 4.5 to about 5.5", "value": "no noticeable differences in rate constant"}]}]}
